Assay [1] addresses T1, Myc-PHB1 (UniProt P35232).
T1 sequence: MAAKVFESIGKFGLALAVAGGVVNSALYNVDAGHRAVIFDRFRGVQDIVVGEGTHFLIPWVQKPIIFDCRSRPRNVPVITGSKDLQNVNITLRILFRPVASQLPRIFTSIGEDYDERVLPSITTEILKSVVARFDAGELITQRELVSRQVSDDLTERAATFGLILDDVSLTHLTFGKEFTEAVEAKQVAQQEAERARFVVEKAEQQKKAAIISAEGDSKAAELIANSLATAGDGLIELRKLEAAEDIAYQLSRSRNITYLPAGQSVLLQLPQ
In words: co-IP; HEK293T cells transfected for 24 h with different doses of Flag-ARIH1 together with Myc-PHB1 and His-Akt.

For assay [2], the target named is T2, Prohibitin 1 (PHB1) (human (endogenous in DLD-1, HCT116 and SW480)) (UniProt P35232).
T2 sequence: T1 sequence
In words: co-IP; endogenous PHB1 and Akt; lysates of SW480 cells overexpressing ARIH1 and of DLD-1 and HCT116 cells with shARIH1, with their controls.

Consider two substances from paper PMC12224947.

Results are given in words; binding and its absence hold for the method and conditions named. Binding seen in cells or lysates may run through a third protein. A result given as binding can be weak or reduced; the word gives no strength. For some assays here: Tags and fused reporters may be left off the sequences shown.

His-Akt: the binding result in assay [1] was “binds”.
Regarding Akt, the binding result in assay [2] is listed as “binds”.
